PubChem BioAssay AID1259308, NCATS – 2017
Test: 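Genes whose loss raises luciferase production in HEK293 cells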 (primary screen). System: human HEK293 embryonic kidney cells stably expressing firefly luciferase (HEK-CMV-Luc2-Hygro). Reagent: single siRNA against human genes, 0.8 pmol siRNA per well. Time to read-out: 72 h. Detection: 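Luciferase light (ONE-Glo) measured on one replicate plate set and viability (CellTiter-Glo) on the other, scaled to a negative control siRNA, with robust z-scores and luciferase per cell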. Direction: total luciferase, z-score and total luciferase, % of control: higher = more reporter protein produced; luciferase per cell, z-score: higher = more reporter output per viable cell; viable cells, % of control: higher = more viable cells. Hit rule: 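Active when the median/MAD z-score for overall luciferase is greater than 3; a gene was taken forward for validation with new siRNAs if at least two of its three siRNAs passed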. Calls: active = raised luciferase; inactive = no rise.
Shown is a random part of about 59,000 reagents. About 1,510 of them (2.6%) count as active. 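Calls use total luciferase alone and ignore viability, so some active siRNAs may act by altering cell number.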 Reagents against one gene are numbered here.

The opening 3 records, ahead of the listing:
no.	Target gene	siRNA no.	total luciferase, z-score	total luciferase, % of control	luciferase per cell, z-score	viable cells, % of control	Call
1	RPUSD4	1	1.66	115	1.72	81.6	inactive
2	RPUSD4	2	-0.376	74.4	-0.0518	84.3	inactive
3	RPUSD4	3	-0.0869	80.2	-0.0689	91.2	inactive

Results, from the start:
no.	Target gene	siRNA no.	total luciferase, z-score	total luciferase, % of control	luciferase per cell, z-score	viable cells, % of control	Call
1	RPUSD4	1	1.66	115	1.72	81.6	inactive
2	RPUSD4	2	-0.376	74.4	-0.0518	84.3	inactive
3	RPUSD4	3	-0.0869	80.2	-0.0689	91.2	inactive
4	LIMS1	1	1.5	112	0.332	114	inactive
5	LIMS1	2	-1.21	57.9	0.589	55.4	inactive
6	LIMS1	3	-1.42	53.7	0.253	56.1	inactive
7	TRIM45	1	-0.334	75.2	-0.77	103	inactive
8	TRIM45	2	3.47	151	1.69	108	active
9	TRIM45	3	0.615	94.1	0.286	97.5	inactive
10	CPEB2	1	-0.54	71.1	-1.01	104	inactive
11	CPEB2	2	-1.35	55	-1.22	84.7	inactive
12	CPEB2	3	1.52	112	0.75	103	inactive
13	PPBP	1	0.354	88.9	0.246	93.2	inactive
14	PPBP	2	0.385	89.5	0.777	81.5	inactive
15	PPBP	3	1.88	119	1.49	90.1	inactive
16	ZCCHC24	1	-0.63	69.4	-0.017	77.9	inactive
17	ZCCHC24	2	1.42	110	1.25	88.5	inactive
18	ZCCHC24	3	-0.881	64.4	0.08	70.4	inactive
19	DDX19B	1	0.101	83.9	1.2	68.4	inactive
20	DDX19B	2	-0.45	72.9	-0.597	95.4	inactive
21	DDX19B	3	-1.68	48.5	-0.869	68.1	inactive
22	VNN2	1	-1.33	55.5	-1.54	93.1	inactive
23	VNN2	2	1.63	114	0.622	109	inactive
24	VNN2	3	-0.29	76.1	-0.407	94.7	inactive
